# Results published in PubChem BioAssay AID192 (DTP/NCI, 2004).
# The list is a part of this screen's results and no random one: it gathers tests that were run many times, whatever their T/C, doses with no T/C, and many T/C values between a quarter and a half above the control. Other doses and runs of a compound stand elsewhere. T/C: endpoint of the treated group in % of that of the vehicle group. Some entries give survivors of the animals treated and no T/C: the source files T/C as zero there, which appears to mark a toxic dose or a test without result, not a measured value. Some survivor counts are full or nearly so, which does not show that the dose was tolerated: the source hardly ever lists a survival T/C far under the control, and the zero likely stands for such cases as well. Counts of survivors are from the toxicity check (mostly the fifth day) where no day follows; animals may have died later. Schedule codes are those of the source, read here as Q, the interval in days (D) or hours (H), X, the number of doses. Some doses were run more than once; their values stand side by side, smallest first. Where survival is the endpoint, the PubChem record calls one and a half times the control and up active, and a quarter to a half above the control has no call in these data; cut-offs in other NCI protocols can differ. Some T/C values are followed by the survivors on the day toxicity was checked, most often the fifth; without a count, all were alive then.
# System: BDF1 mice, B16 melanoma ip, median survival T/C
# Assay: NCI In Vivo Anticancer Drug Screen. Data for tumor model B16 Melanoma (intraperitoneal) in B6D2F1 (BDF1) mice
# Conditions: T/C endpoint: median survival time, higher T/C = longer survival
# Procedure, shortened: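 Each result divides a survival or tumor-size measurement in the compound-treated group by the same measurement in the vehicle group.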
# [1] = dose: 100.0 mg/kg/injection, schedule: Q01DX009 (ip), vehicle: saline with Tween-80
# [2] = dose: 200.0 mg/kg/injection, schedule: Q01DX009 (ip), vehicle: saline with Tween-80
# [3] = dose: 50.0 mg/kg/injection, schedule: Q01DX009 (ip), vehicle: saline with Tween-80
# [4] = dose: 25.0 mg/kg/injection, schedule: Q01DX009 (ip), vehicle: saline
# [5] = dose: 400.0 mg/kg/injection, schedule: Q01DX009 (ip), vehicle: saline
# [6] = dose: 50.0 mg/kg/injection, schedule: Q01DX009 (ip), vehicle: saline
# [7] = dose: 25.0 mg/kg/injection, schedule: Q01DX009 (ip), vehicle: saline with Tween-80
# [8] = dose: 200.0 mg/kg/injection, schedule: Q01DX009 (ip), vehicle: Klucel (hydroxypropylcellulose) (HPC)
# [9] = dose: 100.0 mg/kg/injection, schedule: Q01DX009 (ip), vehicle: saline
# [10] = dose: 400.0 mg/kg/injection, schedule: Q01DX009 (ip), vehicle: saline with Tween-80
compound,measurement,setting,value
COC(=O)C1C2CC3c4[nH]c5ccc(OC)cc5c4CCN3CC2CC(OC(=O)c2cc(OC)c(OC)c(OC)c2)C1OC (configuration not stated),survivor count,"dose: 0.71 mg/kg/injection, schedule: Q01DX009 (ip), vehicle: Klucel (hydroxypropylcellulose) (HPC)",10 of 10
same,survivor count,"dose: 5.7 mg/kg/injection, schedule: Q01DX009 (ip), vehicle: Klucel (hydroxypropylcellulose) (HPC)",10 of 10
same,survivor count,"dose: 11.4 mg/kg/injection, schedule: Q01DX009 (ip), vehicle: Klucel (hydroxypropylcellulose) (HPC)",10 of 10
same,survivor count,"dose: 91.25 mg/kg/injection, schedule: Q01DX009 (ip), vehicle: Klucel (hydroxypropylcellulose) (HPC)",10 of 10
CCCCCCCCCCCCCCCCCCNC(=O)Nc1ccccc1CC,survivor count,[1],10 of 10
same,survivor count,[2],10 of 10
CCNC1=C(N2CC2)C(=O)C(NCC)=C(N2CC2)C1=O,T/C,"dose: 0.37 mg/kg/injection, schedule: Q01DX009 (ip), vehicle: saline",126 % of control
same,survivor count,"dose: 1.5 mg/kg/injection, schedule: Q01DX009 (ip), vehicle: saline",9 of 10 and 10 of 10
same,survivor count,"dose: 3.0 mg/kg/injection, schedule: Q01DX009 (ip), vehicle: saline",9 of 10
C[C@]12CC[C@H](OC(=O)COc3ccc(N(CCCl)CCCl)cc3)C[C@@H]1CC[C@@H]1[C@@H]2CC[C@]2(C)NC(=O)CC[C@@H]12,T/C,"dose: 2.0 mg/kg/injection, schedule: Q01DX009 (ip), vehicle: saline with Tween-80",125 % of control
same,T/C,"dose: 8.0 mg/kg/injection, schedule: Q01DX009 (ip), vehicle: saline with Tween-80",130 % of control
same,T/C,"dose: 16.0 mg/kg/injection, schedule: Q01DX009 (ip), vehicle: saline with Tween-80",132 % of control
same,survivor count,"dose: 64.0 mg/kg/injection, schedule: Q01DX009 (ip), vehicle: saline with Tween-80",10 of 10
CCC1=C(C)c2cc3[n-]c(cc4nc(cc5[n-]c(cc1n2)c(C)c5CCC(=O)OC)C(CCC(=O)OC)=C4C)c(C)c3CC.[Ni+2],survivor count,"dose: 18.75 mg/kg/injection, schedule: Q01DX009 (ip), vehicle: saline with Tween-80",10 of 10
same,survivor count,"dose: 37.5 mg/kg/injection, schedule: Q01DX009 (ip), vehicle: saline with Tween-80",9 of 10
same,survivor count,"dose: 75.0 mg/kg/injection, schedule: Q01DX009 (ip), vehicle: saline with Tween-80",10 of 10
Cc1nc(-c2ccccc2)nc2c1CCO2,T/C,[3],127 % of control
same,T/C,[2],125 % of control [9 of 10 alive]
C(=N/NC1=NCCN1)/c1c2ccccc2c(/C=N\NC2=NCCN2)c2ccccc12,survivor count,[4],10 of 10
CCCC1CC[N-]CC1.CCCC1CC[N-]CC1.CCCC1CC[N-]CC1.CCCC1CC[N-]CC1.CS(C)=O.CS(C)=O.[Cl-].[Cl-].[Cl-].[Cl-].[Cl][Rh][Cl].[Rh+3],T/C,"dose: 12.5 mg/kg/injection, schedule: Q01DX009 (ip), vehicle: water",128 % of control
CNCC(O)c1ccc(O)cc1 (configuration not stated),T/C,[4],125 % of control
same,T/C,[5],143 % of control
CCCCCCCCCC(=O)OCCN1CCN(CCCN2c3ccccc3Sc3ccc(C(F)(F)F)cc32)CC1,T/C,"dose: 0.78 mg/kg/injection, schedule: Q01DX009 (ip), vehicle: alcohol",129 % of control
same,survivor count,"dose: 1.56 mg/kg/injection, schedule: Q01DX009 (ip), vehicle: alcohol",10 of 10
C[n+]1ccc(Nc2ccc(NC(=O)c3ccc(Nc4cc[n+](C)c5ccc(N)cc45)cc3)cc2)cc1,survivor count,"dose: 1.0 mg/kg/injection, schedule: Q01DX009 (ip), vehicle: Klucel (hydroxypropylcellulose) (HPC)",9 of 10
same,survivor count,"dose: 16.0 mg/kg/injection, schedule: Q01DX009 (ip), vehicle: Klucel (hydroxypropylcellulose) (HPC)",9 of 10 and 10 of 10
same,survivor count,"dose: 32.0 mg/kg/injection, schedule: Q01DX009 (ip), vehicle: Klucel (hydroxypropylcellulose) (HPC)",6 of 10
same,survivor count,"dose: 32.0 mg/kg/injection, schedule: Q02DX009 (ip), vehicle: Klucel (hydroxypropylcellulose) (HPC)",9 of 10
same,survivor count,"dose: 64.0 mg/kg/injection, schedule: Q02DX009 (ip), vehicle: Klucel (hydroxypropylcellulose) (HPC)",7 of 10 and 8 of 10
CN(C)c1ccc2nc3ccc(=[N+](C)C)cc-3sc2c1,survivor count,[4],10 of 10
same,survivor count,[6],8 of 10
O=C(CCCN1CCN(c2ccccn2)CC1)c1ccc(F)cc1,survivor count,"dose: 6.25 mg/kg/injection, schedule: Q01DX009 (ip), vehicle: saline with Tween-80",7 of 10
same,survivor count,"dose: 12.5 mg/kg/injection, schedule: Q01DX009 (ip), vehicle: saline with Tween-80",9 of 10
same,survivor count,[7],8 of 10
same,survivor count,[3],8 of 10
same,survivor count,[1],8 of 10
CCCCCCCCCCCCCCCC(=O)N(CCC#N)C(C)(C)CCC(C)(C)N(CCC#N)C(=O)CCCCCCCCCCCCCCC,survivor count,[8],10 of 10
C/C=C1\C[C@@H]2C(OC)Nc3cc(O)c(OC)cc3C(=O)N2C1 (some centres not stated),survivor count,"dose: 1.0 mg/kg/injection, schedule: Q01DX009 (ip), vehicle: saline",10 of 10
same,survivor count,"dose: 1.0 mg/kg/injection, schedule: Q01DX009 (ip), vehicle: suspension in saline",2 of 10
[N-]=[N+]=C1C(=O)NN=C1c1ccccc1,survivor count,[8],0 of 10
same,survivor count,"dose: 400.0 mg/kg/injection, schedule: Q01DX009 (ip), vehicle: Klucel (hydroxypropylcellulose) (HPC)",0 of 10
S=C(SNC1CCCCC1)SNC1CCCCC1,survivor count,"dose: 100.0 mg/kg/injection, schedule: Q04DX003 (ip), vehicle: Klucel (hydroxypropylcellulose) (HPC)",9 of 9
same,survivor count,"dose: 200.0 mg/kg/injection, schedule: Q04DX003 (ip), vehicle: Klucel (hydroxypropylcellulose) (HPC)",10 of 10
same,survivor count,"dose: 400.0 mg/kg/injection, schedule: Q04DX003 (ip), vehicle: Klucel (hydroxypropylcellulose) (HPC)",10 of 10
CC(CNCCN)C[Si](C)(C)C (configuration not stated),survivor count,"dose: 50.0 mg/kg/injection, schedule: Q01DX009 (ip), vehicle: suspension in saline",10 of 10
CCCCCCCCCCNCCC(=O)O,survivor count,"dose: 75.0 mg/kg/injection, schedule: Q01DX009 (ip), vehicle: saline",9 of 10
same,survivor count,"dose: 150.0 mg/kg/injection, schedule: Q01DX009 (ip), vehicle: saline",0 of 10
CC(C)NNC(=O)C(N)CCC(=O)O (configuration not stated),survivor count,[5],10 of 10
CCN(CC)CC#CCCCCN(CC)CC,survivor count,[4],10 of 10
same,survivor count,[9],10 of 10
CCOc1ccc2c(ccc(/C=C\c3cc(C)c4cccnc4c3O)[n+]2C)c1,survivor count,[7],3 of 10
same,survivor count,[3],4 of 10
CC(=O)OC12CC[N+]3(C)CCCCC3C1=Nc1ccccc12 (configuration not stated),survivor count,"dose: 50.0 mg/kg/injection, schedule: Q01DX009 (ip), vehicle: Klucel (hydroxypropylcellulose) (HPC)",0 of 10
same,survivor count,"dose: 100.0 mg/kg/injection, schedule: Q01DX009 (ip), vehicle: Klucel (hydroxypropylcellulose) (HPC)",0 of 10
Nc1cc2[nH]cnc2c(=O)[nH]1,T/C,"dose: 12.5 mg/kg/injection, schedule: Q01DX009 (ip), vehicle: saline",129 % of control
same,T/C,[6],127 % of control
same,T/C,[9],129 % of control
same,T/C,"dose: 200.0 mg/kg/injection, schedule: Q01DX009 (ip), vehicle: saline",148 % of control
same,survivor count,[5],9 of 10
same,survivor count,"dose: 400.0 mg/kg/injection, schedule: Q01DX009 (ip), vehicle: suspension in saline",7 of 10
CCOC(=O)c1ccc(OC(=O)Nc2ccccc2OC)cc1,survivor count,[10],10 of 10
COc1cc2ccc3c4cc5c(cc4c[n+](C)c3c2cc1OC)OCO5,T/C,"dose: 20.0 mg/kg/injection, schedule: Q01DX009 (ip), vehicle: Klucel (hydroxypropylcellulose) (HPC)",127 % of control
same,survivor count,"dose: 40.0 mg/kg/injection, schedule: Q01DX009 (ip), vehicle: Klucel (hydroxypropylcellulose) (HPC)",9 of 10
same,survivor count,"dose: 80.0 mg/kg/injection, schedule: Q01DX009 (ip), vehicle: Klucel (hydroxypropylcellulose) (HPC)",10 of 10
same,survivor count,"dose: 160.0 mg/kg/injection, schedule: Q01DX009 (ip), vehicle: Klucel (hydroxypropylcellulose) (HPC)",9 of 10
Oc1ccc(/C=N\N=C\c2ccc(O)cc2)cc1,survivor count,[10],9 of 10
CC(C)c1ccc(C2CCCCC2O)cc1 (configuration not stated),survivor count,[2],8 of 10
